Laboratory results: PMC8719881

The chains behind the UniProt entries cited, without tags or fusion partners. Residues count along the entry.
UniProt Q9Y4W6, residues 67-797: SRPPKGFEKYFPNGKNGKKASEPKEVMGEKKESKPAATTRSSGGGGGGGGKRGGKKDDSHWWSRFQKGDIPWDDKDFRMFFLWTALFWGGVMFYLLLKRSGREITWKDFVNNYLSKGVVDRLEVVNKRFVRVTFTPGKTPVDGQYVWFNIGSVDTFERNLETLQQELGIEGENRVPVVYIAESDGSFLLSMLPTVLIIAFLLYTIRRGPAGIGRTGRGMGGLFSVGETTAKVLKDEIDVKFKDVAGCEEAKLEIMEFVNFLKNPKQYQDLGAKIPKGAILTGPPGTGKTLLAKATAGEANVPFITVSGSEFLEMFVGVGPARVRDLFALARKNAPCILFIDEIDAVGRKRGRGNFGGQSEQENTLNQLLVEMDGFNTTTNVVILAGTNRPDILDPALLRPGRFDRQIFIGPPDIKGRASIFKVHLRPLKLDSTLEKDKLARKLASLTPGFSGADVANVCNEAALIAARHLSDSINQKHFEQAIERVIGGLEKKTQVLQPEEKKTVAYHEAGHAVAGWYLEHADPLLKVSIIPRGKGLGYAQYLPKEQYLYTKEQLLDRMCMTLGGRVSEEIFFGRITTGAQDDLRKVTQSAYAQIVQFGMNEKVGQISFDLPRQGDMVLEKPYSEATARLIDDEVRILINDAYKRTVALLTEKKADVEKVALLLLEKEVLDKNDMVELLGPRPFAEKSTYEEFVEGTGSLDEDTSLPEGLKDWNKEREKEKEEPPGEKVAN
UniProt Q9UQ90, residues 106-795: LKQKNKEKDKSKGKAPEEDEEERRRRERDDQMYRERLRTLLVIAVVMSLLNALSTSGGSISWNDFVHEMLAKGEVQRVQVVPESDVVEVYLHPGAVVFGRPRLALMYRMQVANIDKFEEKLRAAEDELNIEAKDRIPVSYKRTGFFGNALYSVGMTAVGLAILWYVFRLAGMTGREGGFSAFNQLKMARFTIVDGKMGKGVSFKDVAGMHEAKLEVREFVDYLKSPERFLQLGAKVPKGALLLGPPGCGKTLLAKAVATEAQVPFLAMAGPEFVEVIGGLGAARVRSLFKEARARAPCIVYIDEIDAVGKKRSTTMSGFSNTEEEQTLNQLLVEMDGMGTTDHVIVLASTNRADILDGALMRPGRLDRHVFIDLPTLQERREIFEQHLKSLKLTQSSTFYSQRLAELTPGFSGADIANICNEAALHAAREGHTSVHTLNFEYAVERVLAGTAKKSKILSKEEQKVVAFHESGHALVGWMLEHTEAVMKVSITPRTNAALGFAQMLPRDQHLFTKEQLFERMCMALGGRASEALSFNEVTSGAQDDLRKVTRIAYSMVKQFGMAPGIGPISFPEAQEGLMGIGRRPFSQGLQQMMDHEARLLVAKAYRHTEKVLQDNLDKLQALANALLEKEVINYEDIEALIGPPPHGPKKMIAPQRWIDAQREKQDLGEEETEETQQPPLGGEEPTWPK

T1: SMIM4^FLAG (human) (UniProt Q8WVI0)
T1 sequence: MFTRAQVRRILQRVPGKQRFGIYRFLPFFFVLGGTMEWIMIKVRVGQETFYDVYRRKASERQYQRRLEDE


The molecules below were run against T1, SMIM4^FLAG (human) (assay: affinity purification with mass spectrometry; SILAC; anti-FLAG immunoisolation from mitochondria of wild-type and FLAG-bait-expressing HEK293T cells (1% digitonin, 150 mM NaCl), FLAG peptide elution, LC-MS/MS, n=4 with label switch).

binding | Molecule
binds | AFG3L2 (from UniProt Q9Y4W6 67-797)
binds | C12ORF73 (from UniProt Q69YU5 1-71)
binds | SPG7 (from UniProt Q9UQ90 106-795)
binds | UQCC1 (protein, UniProt Q9NVA1 1-299) MALLVRVLRNQTSISQWVPVCSRLIPVSPTQGQGDRALSRTSQWPQMSQSRACGGSEQIPGIDIQLNRKYHTTRKLSTTKDSPQPVEEKVGAFTKIIEAMGFTGPLKYSKWKIKIAALRMYTSCVEKTDFEEFFLRCQMPDTFNSWFLITLLHVWMCLVRMKQEGRSGKYMCRIIVHFMWEDVQQRGRVMGVNPYILKKNMILMTNHFYAAILGYDEGILSDDHGLAAALWRTFFNRKCEDPRHLELLVEYVRKQIQYLDSMNGEDLLLTGEVSWRPLVEKNPQSILKPHSPTYNDEGL
binds | UQCC2 (protein, UniProt Q9BRT2 14-126) EEWPVDETKRGRDLGAYLRQRVAQAFREGENTQVAEPEACDQMYESLARLHSNYYKHKYPRPRDTSFSGLSLEEYKLILSTDTLEELKEIDKGMWKKLQEKFAPKGPEEDHKA

Results are given in words; binding and its absence hold for the method and conditions named. Binding seen in cells or lysates may run through a third protein. These calls come from enrichment with a bait or labelling near it, and not all partners need be listed. Where a sequence is shown, tags or fusion partners need not be part of it.
